According to doi:10.1101/856369:
Read-outs that look alike come from different tables or passages of the source. These are yes or no findings as the source states them, for the method shown. For part of these data: In cells and extracts the contact can be indirect. Some results given as binding are weak or reduced against the parent protein; the word gives no strength. One block for each substance: values may come before it.

Sequences of proteins named here, by UniProt entry; tags and fusion partners are left off. A change or cut given only in a name is not applied to a line headed by its entry.
UniProt Q8BKX1: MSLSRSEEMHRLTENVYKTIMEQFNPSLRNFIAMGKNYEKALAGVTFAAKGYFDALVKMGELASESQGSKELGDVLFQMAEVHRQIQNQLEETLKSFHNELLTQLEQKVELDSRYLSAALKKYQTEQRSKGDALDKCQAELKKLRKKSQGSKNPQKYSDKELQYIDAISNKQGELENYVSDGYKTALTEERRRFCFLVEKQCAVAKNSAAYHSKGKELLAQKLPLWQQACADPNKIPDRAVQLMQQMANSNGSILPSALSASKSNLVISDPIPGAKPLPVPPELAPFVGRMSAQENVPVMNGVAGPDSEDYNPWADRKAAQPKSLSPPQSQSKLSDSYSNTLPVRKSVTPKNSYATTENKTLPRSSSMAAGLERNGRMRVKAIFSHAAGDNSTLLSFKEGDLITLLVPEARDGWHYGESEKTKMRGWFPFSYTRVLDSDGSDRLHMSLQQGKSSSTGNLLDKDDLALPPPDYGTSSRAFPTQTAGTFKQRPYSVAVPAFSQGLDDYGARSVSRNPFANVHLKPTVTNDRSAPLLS
UniProt Q15286: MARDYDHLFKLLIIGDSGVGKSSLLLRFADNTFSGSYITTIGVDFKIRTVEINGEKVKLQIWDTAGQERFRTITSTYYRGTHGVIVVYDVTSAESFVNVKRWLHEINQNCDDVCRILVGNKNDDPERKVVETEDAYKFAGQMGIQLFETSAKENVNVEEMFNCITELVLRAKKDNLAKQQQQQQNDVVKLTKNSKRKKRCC

Tests used:
Flag-IRSp53 = Flag-IRSp53 (UniProt Q8BKX1); assay: co-IP
[1] = target: GFP-IRSp53 I-BAR* (murine) (UniProt Q8BKX1); assay: co-IP
[2] = target: recombinant purified GST-RAB35S22N (UniProt Q15286); assay: far-Western, overlay or dot blot
[3] = target: recombinant purified GST-RAB35S22N (UniProt Q15286); assay: far-Western, overlay or dot blot; remark: listed apart in the source
[4] = target: recombinant purified RAB35Q67L (UniProt Q15286); assay: far-Western, overlay or dot blot

binding (Flag-IRSp53): binds
Substance: GFP-RAB35 (from UniProt Q15286 1-201)

binding [1]: no binding
Substance: RFP-RAB35S22N (from UniProt Q15286 1-201)

binding [2]: no binding (tested: 30 nM)
Substance: recombinant purified IRSp53 I-BAR* (K142E, K143E, K146E, K147E) (from UniProt Q8BKX1 1-535)

binding [3]: binds
binding [2]: binds
binding [4]: binds
Substance: recombinant purified IRSp53 full-length WT (from UniProt Q8BKX1 1-535)
